Data taken from publication PMC5794963, “Link between the causative genes of holoprosencephaly: Zic2 directly regulates Tgif1 expression”.

How the values were obtained:
F-HA-Zic2 [1] = target: T1, F-HA-Zic2 (UniProt Q62520); experiment: EMSA; settings: recombinant protein, protein details: N-terminal FLAG-HA
T1 sequence (looked up, limits assumed): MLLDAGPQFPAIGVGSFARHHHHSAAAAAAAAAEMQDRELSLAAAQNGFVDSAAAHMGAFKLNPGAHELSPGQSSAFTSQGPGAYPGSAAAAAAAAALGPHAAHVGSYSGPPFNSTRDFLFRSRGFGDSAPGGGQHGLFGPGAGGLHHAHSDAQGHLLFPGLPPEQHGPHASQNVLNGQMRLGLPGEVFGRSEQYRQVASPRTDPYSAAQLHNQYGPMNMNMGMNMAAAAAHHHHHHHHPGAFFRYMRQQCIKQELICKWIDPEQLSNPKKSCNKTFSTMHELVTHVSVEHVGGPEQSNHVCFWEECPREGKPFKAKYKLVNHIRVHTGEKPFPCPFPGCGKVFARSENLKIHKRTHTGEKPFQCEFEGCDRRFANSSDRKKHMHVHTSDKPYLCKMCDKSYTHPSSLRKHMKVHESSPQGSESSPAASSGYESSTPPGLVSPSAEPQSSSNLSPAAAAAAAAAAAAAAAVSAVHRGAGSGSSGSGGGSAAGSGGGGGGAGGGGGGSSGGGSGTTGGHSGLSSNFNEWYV

GLI3-ZF-CH6 (GLI3 ZFD) = target: T2, GLI3-ZF-CH6 (GLI3 ZFD) (UniProt P10071); experiment: EMSA; settings: GBS preferred, section heading says ZBS not recognized by GLI; recombinant protein; label: 5' IRD700 or IRD800 both strands
T2 sequence (looked up, limits assumed): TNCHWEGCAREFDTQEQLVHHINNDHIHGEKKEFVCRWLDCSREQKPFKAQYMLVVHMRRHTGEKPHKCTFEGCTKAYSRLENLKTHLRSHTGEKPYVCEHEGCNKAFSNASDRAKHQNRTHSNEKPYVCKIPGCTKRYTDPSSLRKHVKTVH

F-HA-Zic2 [2] = target: T1, F-HA-Zic2; experiment: competition with a labelled probe; settings: against N1, shifted bands partially disappear; recombinant protein; protein details: N-terminal FLAG-HA; letters put together from the description

“CACCGGGGCGCAGCAGCTGAGTCATCCCCTGCCGGGTCCCGGAAAGCGCTGCGCCAGGGC (double strand) [Tgif1 -1709 to -1649 probe]”: binds more weakly (F-HA-Zic2 [1]; weak binding site, label: 5' IRD700 on reverse strand, letters put together from the description).

“CCAGCTCCTCCTCCCCGAGTCTGTTCTCCCTCCTCTCCCGAGTCCCCGGCGGATGTGAGCCACCAATCCCAGCCACAAACACCAAAAACCCAGAGC (double strand) [Tgif1 -1866 to -1760 probe]”: binds more weakly (F-HA-Zic2 [1]; weak binding site, label: 5' IRD700 on forward strand, letters put together from the description).

“CCAGCTCCTCCTCCCCGAGTCTGTTCTCCCTCCTCTCCCGAGTCCCCGGCGGATGTGAGCCACCAATCCCAGCCACAAACACCAAAAACCCAGAGCGAGGCGGCCCTCAACCGGCGGCTGGGCCCTCCGTGGCCCCCTCCCGCACCACATGAGTCCCGCACCGGGGCGCAGCAGCTGAGTCATCCCCTGCCGGGTCCCGGAAAGCGCTGCGCCAGGGC (double strand) [Tgif1 -1866 to -1649 probe]”: binds (F-HA-Zic2 [1]; three shifted bands, label: 5' IRD700 both strands).

“CCCGCACCACATGAGTCCCG / CGGGACTCATGTGGTGCGCC [ZBS core probe (-1728 to -1709)]”: binds more weakly (GLI3-ZF-CH6 (GLI3 ZFD)).

“GTGGCCCCCTCCCGCACCAC (double strand) [cp3 (-1738 to -1719)]”: binds more weakly (F-HA-Zic2 [2]).

The exact form of at least one protein or probe is not confirmed. A weaker result is weaker than the reference pair of the same experiment. For some assays here: At least one verdict was read from the data and is not stated in words by the source. Where a protein sequence is shown, tags need not be part of it.
